The target in one test is Flag-NF90-DZF (UniProt Q12906). The test can be described thus: co-IP; HEK293T co-transfected for 24 hr; lysis in 1% NP-40, 20 mM Tris-HCl, 150 mM NaCl, 5 mM EDTA, 0.25% deoxycholate, pH 7.5; Protein A/G beads with tag or Tim-3 antibody overnight at 4°C; washes with 500 mM and 150 mM NaCl buffers; western blot; for Figure 5A,B cells treated with MG132 (20 ug/ml) for 6 hr. (In general: A western blot detects proteins with antibodies after separation by electrophoresis.)

Protein sequences, listed by entry. Tags and fused reporters are not part of them. Residues count along the entry.
UniProt Q12906, residues 5-378: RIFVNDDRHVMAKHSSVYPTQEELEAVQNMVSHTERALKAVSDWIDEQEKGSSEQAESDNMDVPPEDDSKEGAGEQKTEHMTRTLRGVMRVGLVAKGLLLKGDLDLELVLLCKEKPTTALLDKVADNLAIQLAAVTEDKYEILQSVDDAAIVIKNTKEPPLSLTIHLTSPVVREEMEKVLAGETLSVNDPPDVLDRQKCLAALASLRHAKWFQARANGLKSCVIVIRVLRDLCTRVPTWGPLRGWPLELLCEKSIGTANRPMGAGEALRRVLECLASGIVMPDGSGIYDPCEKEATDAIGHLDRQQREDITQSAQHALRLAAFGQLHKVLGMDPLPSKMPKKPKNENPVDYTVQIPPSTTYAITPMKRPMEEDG
UniProt Q8TDQ0, residues 22-301: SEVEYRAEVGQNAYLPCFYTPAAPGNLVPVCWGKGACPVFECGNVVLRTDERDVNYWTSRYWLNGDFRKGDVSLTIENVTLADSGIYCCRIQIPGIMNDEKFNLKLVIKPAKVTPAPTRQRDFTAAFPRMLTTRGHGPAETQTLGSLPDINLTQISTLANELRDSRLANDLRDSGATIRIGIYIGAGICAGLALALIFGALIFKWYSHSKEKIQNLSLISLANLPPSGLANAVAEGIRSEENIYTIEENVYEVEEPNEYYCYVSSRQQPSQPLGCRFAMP
UniProt Q96LD4: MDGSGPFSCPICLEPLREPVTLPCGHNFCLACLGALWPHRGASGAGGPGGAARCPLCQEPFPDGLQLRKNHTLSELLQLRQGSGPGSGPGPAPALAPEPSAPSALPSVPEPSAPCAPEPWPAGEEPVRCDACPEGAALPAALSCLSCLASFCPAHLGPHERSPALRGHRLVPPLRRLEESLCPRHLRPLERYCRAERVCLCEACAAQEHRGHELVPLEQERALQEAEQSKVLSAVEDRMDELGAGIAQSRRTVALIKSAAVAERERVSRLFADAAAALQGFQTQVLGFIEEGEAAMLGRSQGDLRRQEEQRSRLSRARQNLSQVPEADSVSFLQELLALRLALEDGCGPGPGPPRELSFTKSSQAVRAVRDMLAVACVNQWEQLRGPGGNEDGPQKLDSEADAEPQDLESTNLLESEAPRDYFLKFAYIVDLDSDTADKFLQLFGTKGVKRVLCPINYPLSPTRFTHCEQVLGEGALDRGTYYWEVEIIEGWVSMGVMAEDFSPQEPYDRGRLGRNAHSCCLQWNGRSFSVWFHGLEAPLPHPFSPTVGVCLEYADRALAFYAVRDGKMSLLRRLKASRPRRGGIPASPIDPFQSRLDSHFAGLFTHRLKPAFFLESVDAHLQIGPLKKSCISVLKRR

In test [1] the target is Tim-3 (wild-type construct of Figure 5A) (human) (UniProt Q8TDQ0). The description is as above.

In PMC8225388 one finds binding data, which are given here for one substance.

Results are given in words; binding and its absence hold for the method and conditions named. In cells and extracts the contact can be indirect. Some binding calls cover weakened binding; strength is not graded here.

On to “V5-TRIM47 (from UniProt Q96LD4 1-638) (enzyme)”, for which the binding entry (with Flag-NF90-DZF; in test [1]) was “binds” each time.
